Reference: the supplement of paper PMC4604168 (melanoma cell lines)
The list shows a part of the results. Repeats are few or missing, and single values can be far off.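 Cells were imaged in 1,536-well plates, and nuclei stained with an antibody against cleaved PARP were counted against all DNA-stained nuclei to give the apoptosis fraction. Screening doses were chosen to leave most cells alive, and resting and induced cleaved-PARP levels differ strongly between cell lines.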

What was measured:
Assay in all cases: cleaved PARP positive nuclei fraction relative to DMSO control; melanoma cells; higher = more apoptosis
Settings in all cases: library dose: low library concentration; 72 h
[1] = tested on: COLO792
[2] = tested on: COLO800
[3] = tested on: COLO829
[4] = tested on: G361
[5] = tested on: IPC-298
[6] = tested on: IST-MEL1
[7] = tested on: LB2518-MEL
[8] = tested on: LOXIMVI
[9] = tested on: MZ2-MEL
[10] = tested on: MeWo
[11] = tested on: RPMI7951
[12] = tested on: RVH-421
[13] = tested on: SkMel28
[14] = tested on: SkMel2
[15] = tested on: SkMel30
[16] = tested on: SkMel5
[17] = tested on: UACC257
[18] = tested on: UACC62

| Structure (SMILES) | cleaved PARP positive nuclei fraction [1] [%] | cleaved PARP positive nuclei fraction [2] [%] | cleaved PARP positive nuclei fraction [3] [%] | cleaved PARP positive nuclei fraction [4] [%] | cleaved PARP positive nuclei fraction [5] [%] | cleaved PARP positive nuclei fraction [6] [%] | cleaved PARP positive nuclei fraction [7] [%] | cleaved PARP positive nuclei fraction [8] [%] | cleaved PARP positive nuclei fraction [9] [%] | cleaved PARP positive nuclei fraction [10] [%] | cleaved PARP positive nuclei fraction [11] [%] | cleaved PARP positive nuclei fraction [12] [%] | cleaved PARP positive nuclei fraction [13] [%] | cleaved PARP positive nuclei fraction [14] [%] | cleaved PARP positive nuclei fraction [15] [%] | cleaved PARP positive nuclei fraction [16] [%] | cleaved PARP positive nuclei fraction [17] [%] | cleaved PARP positive nuclei fraction [18] [%] |
| --- | --- | --- | --- | --- | --- | --- | --- | --- | --- | --- | --- | --- | --- | --- | --- | --- | --- | --- |
| O=c1[nH]nc(Sc2ncc([N+](=O)[O-])s2)n1-c1ccc2c(c1)OCCO2 + c1cc(-c2cnn3cc(-c4ccc(OCCN5CCCCC5)cc4)cnc23)ccn1 [Dorsomorphin] (first compound 0.2 µM, partner dose 0.4 µM) | 46.9 | 66.2 | 20.8 | 92.3 | 61.7 | 152 | 63.5 | 51.8 | 34.8 | 32 | 37.8 | 112 | 109 | 16.4 | 216 | 82.4 | 179 | 80 |
| Cc1cn(-c2cc(NC(=O)c3ccc(C)c(Nc4nccc(-c5cccnc5)n4)c3)cc(C(F)(F)F)c2)cn1 [nilotinib] + COC(=O)c1sccc1S(=O)(=O)Nc1ccc(Nc2ccccc2)cc1OC [GSK0660] (first compound 0.2 µM, partner dose 1 µM) | 54.2 | 74.2 | 82.7 | 69.5 | 90.3 | 451 | 67 | 85.1 | 173 | 56.3 | 35.2 | 64.5 | 178 | 58.9 | 69.7 | 39.2 | 118 | 49.3 |
| O=C(/C=C/c1cccnc1)NCCCCC1CCN(C(=O)c2ccccc2)CC1 + COc1ccc2c(c1)CCC1C2CCC2(C)C(NCCCCCCN3C(=O)C=CC3=O)CCC12 [U73122] (first compound 0.01 µM, partner dose 0.4 µM) | 659 | 259 | 457 | 3790 | 376 | 101 | 133 | 23.6 | 765 | 148 | 115 | 118 | 166 | 567 | 156 | 84.2 | 181 | 63.9 |
| Cc1cc(Nc2cc(N3CCN(C)CC3)nc(Sc3ccc(NC(=O)C4CC4)cc3)n2)n[nH]1 [Tozasertib] + CCCCCCCCCCCC1=C(O)C(=O)C=C(O)C1=O [Embelin] (first compound 0.006 µM, partner dose 1.2 µM) | 91.1 | 46.9 | 166 | 103 | 99.6 | 94.4 | 81.5 | 32.9 | 73.8 | 94 | 46.2 | 85 | 84.8 | 36.1 | 67.7 | 77.1 | 68.2 | 88.1 |
| CC[C@]1(O)C[C@H]2CN(CCc3c([nH]c4ccccc34)[C@@](C(=O)OC)(c3cc4c(cc3OC)N(C=O)[C@H]3[C@@](O)(C(=O)OC)[C@H](OC(C)=O)[C@]5(CC)C=CCN6CC[C@]43[C@@H]65)C2)C1 [vincristine] + O=C(Nc1ccccc1)c1cc([N+](=O)[O-])ccc1Cl [GW9662] (first compound 0.0001 µM, partner dose 2 µM) | 49.6 | 80.2 | 75.5 | 58.3 | 62.1 | 99 | 83 | 63.8 | 63.7 | 119 | 116 | 114 | 97.8 | 93.7 | 222 | 210 | 299 | 194 |
| O=c1[nH]nc(Sc2ncc([N+](=O)[O-])s2)n1-c1ccc2c(c1)OCCO2 + COc1cc2ncnc(Nc3ccc(Oc4ccccc4)cc3)c2cc1OC [SrcI1] (first compound 0.2 µM, partner dose 2 µM) | 95 | 51.5 | 122 | 70 | 47.1 | 187 | 157 | 120 | 64.9 | 61.3 | 41.7 | 113 | 214 | 52.7 | 72.4 | 63.5 | 134 | 61.8 |
| Cc1cn(-c2cc(NC(=O)c3ccc(C)c(Nc4nccc(-c5cccnc5)n4)c3)cc(C(F)(F)F)c2)cn1 [nilotinib] + COc1ccc(COc2ccc(Cc3cnc(N)nc3N)cc2OC)cc1 [GW2580] (first compound 0.2 µM, partner dose 1 µM) | 176 | 148 | 39.2 | 65.9 | 1610 | 35 | 59.7 | 220 | 127 | 82.6 | 34.7 | 69.8 | 396 | 88.7 | 90.5 | 75.4 | 361 | 152 |
| Cc1cc(Nc2cc(N3CCN(C)CC3)nc(Sc3ccc(NC(=O)C4CC4)cc3)n2)n[nH]1 [Tozasertib] + O=C(Nc1ccccc1)c1cc([N+](=O)[O-])ccc1Cl [GW9662] (first compound 0.006 µM, partner dose 2 µM) | 79.9 | 83.7 | 128 | 104 | 45.1 | 103 | 66.9 | 65.8 | 72.6 | 371 | 264 | 64.9 | 134 | 63.5 | 484 | 108 | 64.1 | 109 |
| Cc1cc(Nc2cc(N3CCN(C)CC3)nc(Sc3ccc(NC(=O)C4CC4)cc3)n2)n[nH]1 [Tozasertib] + COc1cc2ncnc(Nc3ccc(Oc4ccccc4)cc3)c2cc1OC [SrcI1] (first compound 0.006 µM, partner dose 2 µM) | 111 | 53.8 | 148 | 92.7 | 102 | 107 | 59.2 | 140 | 232 | 114 | 54.1 | 44.7 | 241 | 28.7 | 93.5 | 81.4 | 199 | 115 |
| Cc1ccc(Nc2nccc(N(C)c3ccc4c(C)n(C)nc4c3)n2)cc1S(N)(=O)=O [Pazopanib] + Oc1nc(-c2ccc(C(F)(F)F)cc2)nc2c1CSCC2 [XAV939] (first compound 0.4 µM, partner dose 2 µM) | 31.3 | 89.1 | 139 | 142 | 54.6 | 108 | 77.1 | 121 | 29.2 | 121 | 96.4 | 82.5 | 138 | 105 | 232 | 50.2 | 190 | 99.8 |
| O=C(Nc1cc(C(F)(F)F)cc(C(F)(F)F)c1)c1cc(Cl)ccc1O + O=C(O)C(=O)Nc1sc2c(c1C(=O)O)CCNC2 [TCS401] (first compound 0.016 µM, partner dose 1.66667 µM) | 114 | 66.4 | 54.5 | 95.2 | 46.7 | 76.6 | 36.6 | 230 | 42.9 | 72.2 | 67 | 62.8 | 187 | 75.1 | 36.7 | 81.7 | 83.9 | 102 |
